Measured values published in article PMC10252889.
These are yes or no findings as the source states them, for the method shown. Binding seen in cells or lysates may run through a third protein. For some assays here: Binding calls can cover weak binding; strength is not graded here. Sequences can lack the tags named with a protein.

Chains of the proteins cited; added tags and fusions are not shown. Lines headed by an entry give the natural chain unless they say otherwise; changes in a name come on top.
UniProt Q8BUW1: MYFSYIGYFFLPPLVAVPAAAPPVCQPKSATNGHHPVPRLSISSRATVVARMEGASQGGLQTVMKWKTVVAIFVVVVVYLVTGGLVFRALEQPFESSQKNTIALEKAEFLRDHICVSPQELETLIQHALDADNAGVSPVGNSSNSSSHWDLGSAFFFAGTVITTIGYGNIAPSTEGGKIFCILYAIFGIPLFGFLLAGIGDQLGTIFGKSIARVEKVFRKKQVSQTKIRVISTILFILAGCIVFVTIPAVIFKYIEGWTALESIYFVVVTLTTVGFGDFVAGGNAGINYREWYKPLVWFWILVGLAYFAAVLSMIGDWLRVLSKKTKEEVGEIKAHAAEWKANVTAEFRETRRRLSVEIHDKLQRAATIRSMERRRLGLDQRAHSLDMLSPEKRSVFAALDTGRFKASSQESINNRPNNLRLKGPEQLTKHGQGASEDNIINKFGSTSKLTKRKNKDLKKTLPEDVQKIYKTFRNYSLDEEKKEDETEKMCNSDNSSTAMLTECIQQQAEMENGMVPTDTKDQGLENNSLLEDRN

Experiments:
[1] = target: VC-tagged TREK2RRRAAA (mouse) (UniProt Q8BUW1); assay: split reporter; BiFC with split Venus (VN-tagged β-COP, VC-tagged channel) in co-transfected HEK293T cells, 24 h, fixed with 4% paraformaldehyde, confocal microscopy
[2] = target: VC-tagged TREK2ΔC (TREK2 C-terminus deletion mutant) (mouse); assay: as above
[3] = target: VC-tagged TREK2ΔC1 (TREK2 lacking the first quarter of the C-terminal region) (mouse) (UniProt Q8BUW1); assay: as above
[4] = target: VC-tagged TREK2ΔC2 (TREK2 lacking the second quarter of the C-terminal region) (mouse) (UniProt Q8BUW1); assay: as above
[5] = target: VC-tagged TREK2ΔC3 (TREK2 lacking the third quarter of the C-terminal region) (mouse) (UniProt Q8BUW1); assay: as above
[6] = target: VC-tagged TREK2ΔC4 (TREK2 lacking the fourth quarter of the C-terminal region) (mouse); assay: as above
[7] = target: VC-tagged TREK2ΔN (TREK2 N-terminal deletion mutant) (mouse); assay: as above
[8] = target: GFP-tagged TREK2ΔC (TREK2 C-terminus deletion mutant) (mouse); assay: co-IP; HEK293T cells co-transfected with GFP-tagged TREK2 or its deletion mutants and mCh-β-COP; lysate immunoprecipitated with anti-GFP overnight at 4 °C, Protein G agarose, blotted with anti-mCh (anti-RFP)
[9] = target: GFP-tagged TREK2ΔC1 (mouse) (UniProt Q8BUW1); assay: as above
[10] = target: GFP-tagged TREK2ΔC2 (mouse) (UniProt Q8BUW1); assay: as above
[11] = target: GFP-tagged TREK2ΔC3 (mouse) (UniProt Q8BUW1); assay: as above
[12] = target: GFP-tagged TREK2ΔC4 (mouse); assay: as above
[13] = target: GFP-tagged TREK2ΔN (TREK2 N-terminal deletion mutant) (mouse); assay: as above
[14] = target: Flag-tagged TREK2RRRAAA (AAA substituted for RRR in the TREK2 C2 segment) (mouse) (UniProt Q8BUW1); assay: co-IP; HEK293T cells co-transfected with Flag-tagged channel and GFP-β-COP; lysate immunoprecipitated with anti-Flag overnight at 4 °C, Protein G agarose, blotted with anti-GFP

B1: VN-tagged β-COP (β-coat protein) (protein, UniProt Q9JIF7 1-953)
chain: MTAAENVCYTLINVPMDSEPPSEISLKNDLEKGDVKSKTEALKKVIIMILNGEKLPGLLMTIIRFVLPLQDHTIKKLLLVFWEIVPKTTPDGRLLHEMILVCDAYRKDLQHPNEFIRGSTLRFLCKLKEAELLEPLMPAIRACLEHRHSYVRRNAVLAIYTIYRNFEHLIPDAPELIHDFLVNEKDASCKRNAFMMLIHADQDRALDYLSTCIDQVQTFGDILQLVIVELIYKVCHANPSERARFIRCIYNLLQSSSPAVKYEAAGTLVTLSSAPTAIKAAAQCYIDLIIKESDNNVKLIVLDRLVELKEHPAHERVLQDLVMDILRVLSTPDLEVRKKTLQLALDLVSSRNVEELVIVLKKEVIKTNNVSEHEDTDKYRQLLVRTLHSCSVRFPDMAANVIPVLMEFLSDSNEAAAADVLEFVREAIQRFDNLRMLIVEKMLEVFHAIKSVKIYRGALWILGEYCSTKEDIQSVMTEVRRSLGEIPIVESEIKKEAGELKPEEEITVGPVQKLVTEMGTYATQSALSSSRPTKKEEDRPPLRGFLLDGDFFVAASLATTLTKIALRYVALVQEKKKQNSFVAEAMLLMATILHLGKSSLPKKPITDDDVDRISLCLKVLSECSPLMNDIFNKECRQSLSQMLSAKLEEEKLSQKKESEKRNVTVQPDDPISFMQLTAKNEMNCKEDQFQLSLLAAMGNTQRKEAADPLASKLNKVTQLTGFSDPVYAEAYVHVNQYDIVLDVLVVNQTSDTLQNCTLELATLGDLKLVEKPSPLTLAPHDFANIKANVKVASTENGIIFGNIVYDVSGAASDRNCVVLSDIHIDIMDYIQPATCTDAEFRQMWAEFEWENKVTVNTNMTDLNDYLQHILKSTNMKCLTPEKALSGYCGFMAANLYARSIFGEDALANVSIEKPVHQGPDAAVTGHIRIRAKSQGMALSLGDKINLSQKKTSL
binding [1]: no binding
binding [2]: no binding
binding [3]: binds
binding [4]: no binding
binding [5]: binds
binding [6]: binds
binding [7]: binds

B2: mCherry-tagged β-COP (protein, UniProt Q9JIF7 1-953)
chain: B1 chain
binding [8]: no binding
binding [9]: binds
binding [10]: no binding
binding [11]: binds
binding [12]: binds
binding [13]: binds

B3: GFP-tagged β-COP (protein, UniProt Q9JIF7 1-953)
chain: B1 chain
binding [14]: no binding
